From PubChem BioAssay AID328 (DTP/NCI, 2004)
The list is a part of this screen's results and no random one: it is rich in T/C values a quarter to a half above the control, in often repeated tests (any T/C) and in doses without a T/C. Further doses and runs are listed elsewhere. T/C is the treated group as % of the vehicle group. Some doses have a count of surviving animals in place of a T/C: the source holds a T/C of zero for them, seemingly a mark for toxic or unscored doses. Some survivor counts are full or nearly so, which does not show that the dose was tolerated: the source hardly ever lists a survival T/C far under the control, and the zero likely stands for such cases as well. Survivors were counted at the toxicity check, usually on the fifth day, unless a day is given; later deaths do not show. Schedule codes are those of the source, read here as Q, the interval in days (D) or hours (H), X, the number of doses. Some entries were tested several times; the values are given in rising order. For survival time, this PubChem deposit counts one and a half times the control or more as active, and values a quarter to a half above the control carry no call in these data; other NCI protocols may use other cut-offs. Some T/C values are followed by the survivors on the day toxicity was checked, most often the fifth; where none is given, no animal had died by that day.

Test system: BDF1 mice, P388 leukemia ip, median survival T/C
Assay: NCI In Vivo Anticancer Drug Screen. Data for tumor model P388 Leukemia (intraperitoneal) in B6D2F1 (BDF1) mice
Conditions: T/C endpoint: median survival time, higher T/C = longer survival
How it was run: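 Antitumour effect was judged in vivo: survival in drug-treated mice, normalised to that of vehicle-dosed controls, gives the reported T/C.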

[1] = dose: 21.0 mg/kg/injection, schedule: Q01DX009 (ip), vehicle: saline
[2] = dose: 200.0 mg/kg/injection, schedule: Q01DX009 (ip), vehicle: other
[3] = dose: 25.0 mg/kg/injection, schedule: Q01DX009 (ip), vehicle: Klucel (hydroxypropylcellulose) (HPC)
[4] = dose: 100.0 mg/kg/injection, schedule: Q01DX009 (ip), vehicle: Klucel (hydroxypropylcellulose) (HPC)
[5] = dose: 200.0 mg/kg/injection, schedule: Q01DX009 (ip), vehicle: saline
[6] = dose: 200.0 mg/kg/injection, schedule: Q01DX009 (ip), vehicle: saline with Tween-80
[7] = dose: 400.0 mg/kg/injection, schedule: Q01DX009 (ip), vehicle: saline with Tween-80

SMILES: CCCC[N+](CC)(CC)CCCNC1=CC(=O)C(NCCC[N+](CC)(CC)CCCC)=CC1=O
- survivor count (dose: 1.56 mg/kg/injection, schedule: Q04DX002 (ip), vehicle: saline): 0 of 6

SMILES: CCC(C)C1NC(=O)C(NC(=O)c2c3nc4c(C(=O)NC5C(=O)NC(C(C)CC)C(=O)N6CCCC6C(=O)N(C)CC(=O)N(C)C(C(C)C)C(=O)OC5C)cc([N+](=O)[O-])c(C)c4oc-3c(C)c(=O)c2N)C(C)OC(=O)C(C(C)C)N(C)C(=O)CN(C)C(=O)C2CCCN2C1=O (stereo unspecified)
- T/C (dose: 0.15 mg/kg/injection, schedule: Q04DX003 (ip), vehicle: saline + alcohol): 125 % of control
- T/C (dose: 2.4 mg/kg/injection, schedule: Q04DX003 (ip), vehicle: saline + alcohol): 125 % of control
- T/C (dose: 25.0 micrograms/kg/injection, schedule: Q01DX009 (ip), vehicle: saline + alcohol): 147 % of control

SMILES: Cc1cc(-c2ccccc2)c2ccccc2c1N(CC(=O)O)S(=O)(=O)c1ccccc1
- survivor count (dose: 66.0 mg/kg/injection, schedule: Q01DX009 (ip), vehicle: saline with Tween-80): 6 of 6
- T/C (dose: 150.0 mg/kg/injection, schedule: Q01DX009 (ip), vehicle: saline with Tween-80): 130 % of control

SMILES: CN(C)c1ccc(C=O)c(Oc2ccccc2)c1
- survivor count (dose: 100.0 mg/kg/injection, schedule: Q04DX003 (ip), vehicle: Klucel (hydroxypropylcellulose) (HPC)): 5 of 6

SMILES: CCCCCCCCCCCC[N+](C)(C)C (tested in a mixture with another compound)
- T/C (dose: 7.0 mg/kg/injection, schedule: Q01DX009 (ip), vehicle: saline): 142 % of control
- T/C (dose: 9.2 mg/kg/injection, schedule: Q01DX009 (ip), vehicle: saline): 131 % of control [5 of 6 alive]
- T/C (dose: 14.0 mg/kg/injection, schedule: Q01DX009 (ip), vehicle: saline): 136 % of control
- T/C [1]: 136 % of control [5 of 6 alive]
- survivor count [1]: 2 of 6
- survivor count (dose: 28.0 mg/kg/injection, schedule: Q01DX009 (ip), vehicle: saline): 2 of 6

SMILES: CCCCCCCCCCCCCCCCS(=O)(=O)N/N=C/C(=O)O
- T/C (dose: 12.5 mg/kg/injection, schedule: Q01DX009 (ip), vehicle: other): 129 % of control
- T/C (dose: 25.0 mg/kg/injection, schedule: Q01DX009 (ip), vehicle: other): 125 and 131 % of control
- T/C (dose: 50.0 mg/kg/injection, schedule: Q01DX009 (ip), vehicle: other): 140 and 145 % of control
- survivor count (dose: 100.0 mg/kg/injection, schedule: Q01DX009 (ip), vehicle: other): 4 of 6 and 6 of 6
- survivor count [2]: 0 of 6 and 2 of 6
- survivor count (dose: 400.0 mg/kg/injection, schedule: Q01DX009 (ip), vehicle: other): 0 of 6

SMILES: CC(C)=CC(=O)OC1C2C(C)C(=O)OC2C(O)C(C)C2C=CC(=O)C21C (stereo unspecified)
- T/C [3]: 133 % of control
- T/C [4]: 141 % of control
- T/C (dose: 100.0 mg/kg/injection, schedule: Q01DX009 (ip), vehicle: saline): 137 % of control
- survivor count [5]: 6 of 6

SMILES: c1csc(C[N+]23CN4CN(CN(C4)C2)C3)c1
- T/C [5]: 148 % of control
- survivor count (dose: 400.0 mg/kg/injection, schedule: Q01DX009 (ip), vehicle: saline): 3 of 6

SMILES: COc1ccc(OC)c(/C=C/[N+](=O)[O-])c1
- T/C (dose: 50.0 mg/kg/injection, schedule: Q01DX009 (ip), vehicle: Klucel (hydroxypropylcellulose) (HPC)): 133 % of control
- T/C [4]: 130 % of control

SMILES: C#CCCC#C
- T/C (dose: 100.0 mg/kg/injection, schedule: Q01DX009 (ip), vehicle: saline with Tween-80): 134 % of control

SMILES: COC(COC(N)=O)C1=C(N2CC2)C(=O)C(C)=C(N2CC2)C1=O (stereo unspecified)
- T/C (dose: 0.06 mg/kg/injection, schedule: Q01DX009 (ip), vehicle: saline): 145 % of control
- T/C (dose: 1.0 mg/kg/injection, schedule: Q01DX009 (ip), vehicle: saline): 133 % of control
- survivor count (dose: 2.0 mg/kg/injection, schedule: Q01DX009 (ip), vehicle: saline): 6 of 6

SMILES: CC(C)n1cnc2c(=S)nc[nH]c21
- survivor count [6]: 6 of 6
- survivor count [7]: 3 of 6

SMILES: OCC1CC[N-]CC1.OCC1CC[N-]CC1.[Cl][Pt+2]([Cl])([Cl])[Cl]
- survivor count (dose: 200.0 mg/kg/injection, schedule: Q04DX003 (ip), vehicle: saline): 4 of 6

SMILES: C(#C[P+]1(c2ccccc2)C=C(c2ccccc2)OC(c2ccccc2)=C1)c1ccccc1
- survivor count (dose: 100.0 mg/kg/injection, schedule: Q01DX005 (ip), vehicle: saline with Tween-80): 3 of 5
- survivor count (dose: 200.0 mg/kg/injection, schedule: Q01DX005 (ip), vehicle: saline with Tween-80): 0 of 5

SMILES: Cc1ccc2c3csc4ccccc4c-3nc2c1
- T/C (dose: 8.2 mg/kg/injection, schedule: Q01DX009 (ip), vehicle: saline): 136 % of control

SMILES: ClCCN(CCCl)c1cc(OCc2ccccc2)cc(OCc2ccccc2)c1
- survivor count (dose: 25.0 mg/kg/injection, schedule: Q01DX009 (ip), vehicle: water): 6 of 6
- survivor count (dose: 50.0 mg/kg/injection, schedule: Q01DX009 (ip), vehicle: water): 6 of 6
- survivor count (dose: 100.0 mg/kg/injection, schedule: Q01DX009 (ip), vehicle: water): 6 of 6
- survivor count (dose: 400.0 mg/kg/injection, schedule: Q01DX009 (ip), vehicle: water): 6 of 6

SMILES: O=NN(CCCl)C(=O)NC1CCCCC1
- T/C (dose: 5.5 mg/kg/injection, schedule: Q01DX009 (ip), vehicle: Klucel (hydroxypropylcellulose) (HPC)): 132 % of control
- T/C (dose: 8.2 mg/kg/injection, schedule: Q01DX009 (ip), vehicle: Klucel (hydroxypropylcellulose) (HPC)): 144 % of control
- survivor count [3]: 2 of 3
- T/C (dose: 50.0 mg/kg/injection, schedule: Q01DX009 (ip), vehicle: saline): 132 % of control
- T/C (dose: 60.0 mg/kg/injection, schedule: Q01DX001 (ip), vehicle: saline): 146 % of control
- T/C (dose: 100.0 mg/kg/injection, schedule: Q01DX001 (ip), vehicle: Klucel (hydroxypropylcellulose) (HPC)): 137 % of control
- survivor count [4]: 3 of 3
- T/C (dose: 135.0 mg/kg/injection, schedule: Q01DX001 (oral), vehicle: carboxymethylcellulose (CMC)): 135 % of control
- survivor count (dose: 150.0 mg/kg/injection, schedule: Q01DX001 (ip), vehicle: carboxymethylcellulose (CMC)): 10 of 10
- survivor count (dose: 200.0 mg/kg/injection, schedule: Q01DX001 (oral), vehicle: carboxymethylcellulose (CMC)): 10 of 10
- survivor count (dose: 200.0 mg/kg/injection, schedule: Q01DX009 (ip), vehicle: Klucel (hydroxypropylcellulose) (HPC)): 0 of 3
- survivor count (dose: 400.0 mg/kg/injection, schedule: Q01DX009 (ip), vehicle: Klucel (hydroxypropylcellulose) (HPC)): 0 of 3

SMILES: CSCC(C(N)=O)c1cc(Cl)ccc1Cl (stereo unspecified)
- survivor count [6]: 3 of 6
- survivor count [7]: 4 of 6

SMILES: CN(C)CNc1ncnc2onc(-c3ccccc3)c12
- survivor count [2]: 3 of 6

SMILES: CS(=O)(=O)OCCN(CCOS(C)(=O)=O)c1ccc(C=Nc2ccc3oc(=O)ccc3c2)cc1
- T/C (dose: 200.0 mg/kg/injection, schedule: Q04DX003 (ip), vehicle: saline with Tween-80): 145 % of control
- survivor count (dose: 300.0 mg/kg/injection, schedule: Q04DX003 (ip), vehicle: saline with Tween-80): 6 of 6
- survivor count (dose: 400.0 mg/kg/injection, schedule: Q04DX003 (ip), vehicle: saline with Tween-80): 6 of 6

SMILES: O=C1CCCC2C3CC(CN12)C1CC(O)CCN1C3 (stereo unspecified)
- survivor count (dose: 160.0 mg/kg/injection, schedule: Q01DX010 (ip), vehicle: saline): 2 of 6

SMILES: ClCCN(CCCl)c1ccc(CNCCCNCc2ccc(N(CCCl)CCCl)cc2)cc1
- T/C (dose: 1.65 mg/kg/injection, schedule: Q01DX009 (ip), vehicle: Klucel (hydroxypropylcellulose) (HPC)): 136 % of control
- T/C (dose: 1.65 mg/kg/injection, schedule: Q01DX009 (ip), vehicle: saline sonified): 145 % of control
- T/C (dose: 2.5 mg/kg/injection, schedule: Q01DX009 (ip), vehicle: Klucel (hydroxypropylcellulose) (HPC)): 136 % of control
- T/C (dose: 3.75 mg/kg/injection, schedule: Q01DX009 (ip), vehicle: Klucel (hydroxypropylcellulose) (HPC)): 145 % of control

SMILES: O=C(Nc1ccc(Cl)c(Cl)c1)Nc1c(Oc2ccc(Cl)c(Cl)c2)ccc(Cl)c1S(=O)(=O)O
- T/C (dose: 80.0 mg/kg/injection, schedule: Q01DX009 (ip), vehicle: saline): 131 % of control
- T/C (dose: 120.0 mg/kg/injection, schedule: Q01DX009 (ip), vehicle: saline): 127 % of control [5 of 6 alive]
